Laboratory results: paper PMC7819943, “Rice protein-binding microarrays: a tool to detect cis-acting elements near promoter regions in rice”
This is one part of the list.

Molecular target: T1, OsSMF1 (Oryza sativa, UniProt Q6ZLB0 1-436)
T1 sequence: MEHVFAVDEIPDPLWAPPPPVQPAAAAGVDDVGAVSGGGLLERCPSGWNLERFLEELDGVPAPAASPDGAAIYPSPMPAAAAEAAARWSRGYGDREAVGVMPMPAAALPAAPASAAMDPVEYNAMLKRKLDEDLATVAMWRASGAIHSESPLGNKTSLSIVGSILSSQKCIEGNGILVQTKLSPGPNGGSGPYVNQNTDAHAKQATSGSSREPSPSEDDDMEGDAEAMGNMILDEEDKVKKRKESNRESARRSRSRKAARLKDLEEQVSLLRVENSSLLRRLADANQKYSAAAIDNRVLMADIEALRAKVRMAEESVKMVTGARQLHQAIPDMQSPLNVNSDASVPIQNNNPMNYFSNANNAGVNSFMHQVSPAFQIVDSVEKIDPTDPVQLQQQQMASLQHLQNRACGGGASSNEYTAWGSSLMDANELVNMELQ
Experiment: protein-binding microarray (RPBM); PBS, 2% BSA, 51.3 ng/ul salmon testes DNA, 50 uM zinc acetate, 200 nM TF, 25 C, 1 h; high values mean tight binding
Settings: protein: recombinant; tags: N-terminal polyhistidine and DsRed monomer fusion (pET32a); chain copies: 2; label: CyDye5-dUTP incorporated in the synthesized complementary strand; 3' TTTTT single-stranded linker to array surface; dsDNA, one strand shown
How it was run: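 Ni–NTA purification followed expression in E. coli BL21-CodonPlus of transcription factors fused N-terminally to a polyhistidine tag and DsRed. At 200 nM in PBS with 2% BSA, salmon testes DNA and 50 µM zinc acetate, the protein was incubated for 1 h at 25 °C with a custom Agilent array that had been primer-extended with Cy5-dUTP and blocked with 2% BSA. After washing, the array was read on an Axon 4000B scanner. The binding signal is per-feature fluorescence intensity in arbitrary units.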

Sequence	binding signal
AATTTACAGTTTTACACGTTTAGAGTTTACTGTAACGTGCCGGAGTCACCTAGTGCAG	3250 fluorescence intensity (a.u.)
GCCGGCGACGGAGGCATCCACCACGTTGGTGTTTGTTCAGCGGAGTCACCTAGTGCAG	4940 fluorescence intensity (a.u.)
TAAGTTGGATTGAATTGGCTTGTCTACACGTGTCCTTTCCCGGAGTCACCTAGTGCAG	7940 fluorescence intensity (a.u.)
CTGCCATGTCAGGAAGAGCTCGAGGCCCCAAGCCGCCAAGCGGAGTCACCTAGTGCAG	21000 fluorescence intensity (a.u.)
TTGATGTGCCACGTAAACGCCACATCAGCTAAACCCAGGCCGGAGTCACCTAGTGCAG	31400 fluorescence intensity (a.u.)
TCCCTTCTCATTATGAATTTGTCTTGAGACCATGGGCAAGCGGAGTCACCTAGTGCAG	8360 fluorescence intensity (a.u.)
GGTCGAGGTCGGGGCGGCCGCTGCCGCTGCCGCGGTCGCACGGAGTCACCTAGTGCAG	32300 fluorescence intensity (a.u.)
TTTGACATAGATGTGTTCCTCTAATGACATAGATGTGTTCCGGAGTCACCTAGTGCAG	3230 fluorescence intensity (a.u.)
TTTGTCTATCCTGCCGGCTTTTGGCCTCTGCACGGCGCGCCGGAGTCACCTAGTGCAG	6700 fluorescence intensity (a.u.)
CGCGATTCGCGAGTCATCATCCACGCGTCGTCGTCGTACTCGGAGTCACCTAGTGCAG	4740 fluorescence intensity (a.u.)
AGGCTACCCCACATATTATACTGGTGTGATTATGGTGAATCGGAGTCACCTAGTGCAG	3540 fluorescence intensity (a.u.)
AACGGCCCCGCATTCCTTGCCGTGACGTGACATGGCCACGCGGAGTCACCTAGTGCAG	11100 fluorescence intensity (a.u.)
TGGTGTCGCCGACTCTCTTCCTCCCGGTCCACTGGTGCCGCGGAGTCACCTAGTGCAG	13700 fluorescence intensity (a.u.)
CCAAACTAAGAGTGTTCAAGGGGAGGGGAAAAGAGAAGATCGGAGTCACCTAGTGCAG	3660 fluorescence intensity (a.u.)
TCCGTGGATGGTGGGAGACGGAGCGGCGTCATCGGTGGCCCGGAGTCACCTAGTGCAG	4120 fluorescence intensity (a.u.)
CGCCATGGACTGTCTCCATCCAAACCTACGTGTATCTTCACGGAGTCACCTAGTGCAG	3260 fluorescence intensity (a.u.)
GCTTGTGCCGCCGCCGCCACGTGCCGGTAGGGCTCCCCGCCGGAGTCACCTAGTGCAG	8360 fluorescence intensity (a.u.)
TTGGGTGGTCCCAAAATCATGGCAACTAATGGTGTTGTCCCGGAGTCACCTAGTGCAG	3900 fluorescence intensity (a.u.)
AAAGAACGCAGCCTTAGAAGGAGACAGCTCATGGAGCAAGCGGAGTCACCTAGTGCAG	5000 fluorescence intensity (a.u.)
AGAAGGGAAGGGGAGGGGAGGGCGGGACGCCGGCCGGAGCCGGAGTCACCTAGTGCAG	5470 fluorescence intensity (a.u.)
GCCATCGCTGACGCCGCCGACGCCGCCTCCAAATCCCGCCCGGAGTCACCTAGTGCAG	4700 fluorescence intensity (a.u.)
GTGCCTTGTTAAGTCGTTCGTGGTAGAATGCGTTGGCAGTCGGAGTCACCTAGTGCAG	6840 fluorescence intensity (a.u.)
TGCATGATATACAAATGTATAGCAAGCAGCACACATTACACGGAGTCACCTAGTGCAG	32000 fluorescence intensity (a.u.)
GGCGAGTCCACCGCGACGACACACACGTACTGATACCAATCGGAGTCACCTAGTGCAG	4930 fluorescence intensity (a.u.)
ATAAATTACCTTTAAATTTGCATGTGTTAAGCGATCATATCGGAGTCACCTAGTGCAG	3820 fluorescence intensity (a.u.)
ATAGATACTCCCTTCTACATCCCATCATAGTATGTGTCACCGGAGTCACCTAGTGCAG	4490 fluorescence intensity (a.u.)
CGTCGCCGTCGCCTCGCCTCGTCACGGCCGCCTCCGCCATCGGAGTCACCTAGTGCAG	7920 fluorescence intensity (a.u.)

Sequence	binding signal
CCGCCGCCGACGCGTTCCCGGCCGGCGGCGCCTACGTCGTCGGAGTCACCTAGTGCAG	3350 fluorescence intensity (a.u.)
GTGTGTGAGGTGGGGAATTGGGAGCAGTTGATCACCGGGGCGGAGTCACCTAGTGCAG	3380 fluorescence intensity (a.u.)
TCGTGATCGGAAGGCGGAATGGTTGGGGCTACGTGTTTGTCGGAGTCACCTAGTGCAG	5050 fluorescence intensity (a.u.)
GGAGCACATAACATGCACGTCGGCCTCTGCCGCGTACGTACGGAGTCACCTAGTGCAG	3350 fluorescence intensity (a.u.)
TTGAAACTCAACGATACATCACTAGCTACCATTACGTATACGGAGTCACCTAGTGCAG	3140 fluorescence intensity (a.u.)
GAAGTAGTATCATGTTTACTCGTCCAACGTGTCTACCATCCGGAGTCACCTAGTGCAG	7280 fluorescence intensity (a.u.)
GACACGCCCGCCATGTCAGCCAAACACTGCTCTGGGATCTCGGAGTCACCTAGTGCAG	6850 fluorescence intensity (a.u.)
CAATTATCATTTATTTTGTTGTGAGTTGTTTTATCACTAACGGAGTCACCTAGTGCAG	3410 fluorescence intensity (a.u.)
GTATACTCTGCTGATGTGTTTATGTGTTTAAGGTCGTTGACGGAGTCACCTAGTGCAG	8700 fluorescence intensity (a.u.)
AGGAAGGAAGGAAGCAAAATGCTGACGTGTACATAAACCGCGGAGTCACCTAGTGCAG	16000 fluorescence intensity (a.u.)
ATGTTTATCATGTGTTCAGGGTGATGTGGACGTTGTATGTCGGAGTCACCTAGTGCAG	9250 fluorescence intensity (a.u.)
AAGGAGGGGATATGCATGTGTATGCCTTTGTAAGTTTATCCGGAGTCACCTAGTGCAG	30600 fluorescence intensity (a.u.)
CCTTAGGCTACGTTGGCTTTTGCATTTTGGCGTGGATTTTCGGAGTCACCTAGTGCAG	14400 fluorescence intensity (a.u.)
AGAGTGTGTATACGATCAGCCCCATCAAGTAGTTTTCTCTCGGAGTCACCTAGTGCAG	3240 fluorescence intensity (a.u.)
ATAAAAGAAAACACGTAACTAGTTAATGTATATTCGTAGTCGGAGTCACCTAGTGCAG	3280 fluorescence intensity (a.u.)
CAACCAAGCAAGCGGCAGCAGAGCGCGAGTCATGCGACCCCGGAGTCACCTAGTGCAG	3180 fluorescence intensity (a.u.)
GCACAATGATGACAACAGACAGTTTCCCACAGAAGATCCACGGAGTCACCTAGTGCAG	3300 fluorescence intensity (a.u.)
TTGGCTGATCTGTTCACGCTGACGCAACAGACGCGACGCGCGGAGTCACCTAGTGCAG	10200 fluorescence intensity (a.u.)
CACTACTTATCCAATCACAACCCTACATCACTCACTTCTACGGAGTCACCTAGTGCAG	3180 fluorescence intensity (a.u.)
CGCGCGTCTCGACTCCGTCCCAATCGATCGATCGATCGCGCGGAGTCACCTAGTGCAG	12800 fluorescence intensity (a.u.)
TTCCTACGTAGTCGCTATGACGGTGTACTACTTTTATATACGGAGTCACCTAGTGCAG	3940 fluorescence intensity (a.u.)
TACCGGCAGCTGCCTCTGACTCGTCTCCTCGTTGCTCCTCCGGAGTCACCTAGTGCAG	5020 fluorescence intensity (a.u.)
AATGAATTATACAAAACCAGAACTTTCTGATATTGAATTGCGGAGTCACCTAGTGCAG	3230 fluorescence intensity (a.u.)
CTAGCTTCGAGAGGCCGAGTTGCTCCACGTGGAGAGAGAGCGGAGTCACCTAGTGCAG	6570 fluorescence intensity (a.u.)
CCATGTCGGCGCCGCCGCCGTCCCCGTCCCAGTCGCCGCCCGGAGTCACCTAGTGCAG	3640 fluorescence intensity (a.u.)
ATTGTACTCCTACGTATCGAAGTCATGCGAAACTCATGCACGGAGTCACCTAGTGCAG	3220 fluorescence intensity (a.u.)
ATTTCCTGCAAGAAGGATGACTGAGTCAACAGGCGACCGGCGGAGTCACCTAGTGCAG	25600 fluorescence intensity (a.u.)

Two records drawn at random from the list so far:
Sequence	binding signal
GCACAATGATGACAACAGACAGTTTCCCACAGAAGATCCACGGAGTCACCTAGTGCAG	3300 fluorescence intensity (a.u.)
CAATTATCATTTATTTTGTTGTGAGTTGTTTTATCACTAACGGAGTCACCTAGTGCAG	3410 fluorescence intensity (a.u.)
